Experimental data: patent US20160341734A1, “USE OF FLUOROQUINOLONE ANTIBIOTICS” (POSTECH ACADEMY-INDUSTRY FOUNDATION, priority 2015, published 2016)
Where a name gives a salt, the structure may show the parent alone. At least one structure is not confirmed: it was looked up by name or label, or the drawing left a doubt.

System: pseudomonas
Test: multi-photon fluorescence in bacteria
Type: cell-based
Details: FIG. 16B
Description: Bacteria (pseudomonas and staphylococcus) used in the experiment, hydrochloride moxifloxacin, and a biaxial scanner (a galvano scanner of x axis and a galvano scanner of y axis) to be used by a point scanning method were prepared.
In this Experimental Example, a two-photon microscope using a femtosecond laser as a light source was used, and the multi-photon fluorescence was equally measured under the following condition throughout an experimental process.
Excitation wavelength: 780 nm for vigamox(moxifloxacin)
The bacteria were incubated under the following condition.
pseudomonas-nutrient broth (nutrient medium)
1. A bacteria stock was put in a medium of 3 mL and cultured after overnight incubation (37° C. and 200 rpm).
2. Here, 0.03 mL of the cultured bacteria stock was taken and put in a fresh medium of 3 mL, and then cultured (37° C. and 200 rpm) up to OD600=1.5.
3. […]
In order to compare fluorescence expression of hydrochloride moxifloxacin with auto-fluorescence expression of bacteria, fluorescence expression of bacteria (pseudomonas and staphylococcus) which are not applied with hydrochloride moxifloxacin was first photographed and intensity of the auto-fluorescence expression was recorded. Subsequently, the hydrochloride moxifloxacin was administered to the medium and then the intensity of the fluorescence expression after the incubation time was measured.

With `COc1c(N2C[C@@H]3CCCN[C@@H]3C2)c(F)cc2c(=O)c(C(=O)O)cn(C3CC3)c12` [hydrochloride moxifloxacin, moxifloxacin] the labeling of bacteria was “may be labeled”.
